Data: PubChem BioAssay AID624297 (National Center for Advancing Translational Sciences (NCATS), 2012)
The whole screen tested about 340,000 compounds, of which about 6,200 (1.8%) were called active. This list was built around the results that the source calls inconclusive (neither active nor inactive); the mix of calls is not that of the screen. Calls come from the whole dose curve; as a rule, active = well fitted activation curve with a large enough effect; inconclusive = small, poorly fitted or top-dose-only effect; inactive = no such curve, though single readings can be large or run the other way. Where the call is inconclusive, the potency comes from a doubtful curve fit.

assay: A quantitative high throughput screen for small molecules that induce DNA re-replication in SW480 colon adenocarcinoma cells.; note: nearly all actives have a fitted effect of over 55% in size; conditions: Hoechst DNA content imaging, 48 h; series mostly up to 46.1 µM
Summary of the method: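 Hoechst fluorescence of nuclei (405 nm excitation, 500-530 nm emission) measured by plate-scanning imager after 48 hr compound exposure at 37 C; re-replication scored as increased number of nuclei with elevated intensity.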
Potency is the fitted concentration of half-maximal effect.

| Structure (SMILES) | Potency |
| --- | --- |
| CN(C)CCCNc1c2c(nc3cc(-c4cccc(F)c4)nn13)CCC2 | inconclusive: 20.6 µM [activator, single point] |
| O=C(NC1CCN(Cc2ccccc2)CC1)c1ccc2c(c1)[nH]c(=O)n2Cc1ccc(F)cc1 | inconclusive: 20.6 µM [activator, single point] |
| O=C(O)c1ccccc1NS(=O)(=O)c1ccc(NN=Cc2ccc(F)cc2)c([N+](=O)[O-])c1 | inactive |
| COCCCNc1oc(/C=C/c2ccccc2)nc1C#N | active: 7.94 µM |
| CCOc1ccc(NC(=S)N2CCCN(Cc3cccc(Cl)c3)C2)cc1 | inconclusive: 23.1 µM [activator, single point] |
| O=C(c1ccc2c(=O)n(Cc3ccc(Cl)cc3)c(=S)[nH]c2c1)N1CCOCC1 | inconclusive: 29.1 µM [activator, partial curve, poor fit] |
| COc1cccc(C(=O)Nc2ccc(N3CCN(C(=O)c4ccco4)CC3)cc2)c1 | active: 18.4 µM |
| COc1ccc(NC2CCCN(C(=O)c3cn(C)c4ccccc34)C2)cc1 (stereo not given) | inactive |
| CCOCC(=O)Nc1cc(C(=O)OC)ccc1C(=O)OC | inactive |
| COc1cc(O)c(C(=O)/C=C/c2ccccc2)c(OC)c1 | inconclusive: 29.1 µM [activator, partial curve, poor fit] |
| CN(c1ccccc1)S(=O)(=O)c1cccc(C(=O)N2CCCCCC2)c1 | inconclusive: 20.6 µM [activator, single point] |
| CCCc1c(C(=O)Nc2cc(C)on2)cnn1-c1ccccc1 | inconclusive: 0.461 µM [activator, full curve, poor fit] |
| COc1ccc(CNC(=O)[C@H](Cc2ccccc2)NC(=O)C2CCNCC2)cc1 | inactive |
| Cc1ccc(-c2cc(-c3ccccc3)nc(NN)n2)cc1 | inconclusive: 18.4 µM [activator, single point] |
| COc1ccc(CCC(=O)NNC(=O)Nc2cc(Cl)ccc2C)cc1 | inconclusive: 23.1 µM [activator, single point] |
| CN(C(=O)C1CCC(=O)N(C2CC2)C1)C1CCCCC1 (stereo not given) | inactive |
| O=C(Nc1ccccc1N1CCOCC1)C1CCN(S(=O)(=O)c2ccccc2F)CC1 | inactive |
| Cc1ccc(C(=O)C2(C)C3c4cc(Br)ccc4OC(=O)C32C(=O)c2ccco2)cc1 (stereo not given) | inactive |
| O=C(NNc1nc(-c2ccccc2)cs1)c1cccs1 | inconclusive: 25.9 µM [activator, single point] |
| O=C1N(Cc2cccnc2)C[C@@H]2C[C@@H](c3ccc(-c4ccccc4)cc3)N3CCC[C@@]123 | inactive |
| Cc1ccc(-c2cc(C(F)F)nc(NCc3cccs3)n2)cc1 | inconclusive: 8.2 µM [activator, partial curve] |
| COc1cccc(CN2CCN(Cc3ccon3)CC2CCO)c1 (stereo not given) | inconclusive: 0.058 µM [activator, full curve, poor fit] |
| CN(C(=O)c1ccco1)c1nnc(-c2ccc(F)cc2)s1 | inconclusive: 29.1 µM [activator, single point] |

| Structure (SMILES) | Potency |
| --- | --- |
| O=C(N/N=C/c1cc(Br)cc(Br)c1O)c1ccncc1 | active: 1.03 µM |
| COc1ccc(C2c3ccc4ccccc4c3Oc3ncn(CCCO)c(=N)c32)cc1OC (stereo not given) | active: 18.4 µM |
| COc1cc(/C=C/C(=O)OCC(=O)NC2CCCCCCC2)ccc1O | inactive |
| O=S(=O)(NC(=S)c1ccccc1)c1ccc(Cl)cc1 | inactive |
| CCOc1nc(Nc2ccc(OC)cc2OC)nc(OCC)n1 | inactive |
| COc1ccc(-c2nnc(SCC(=O)/C(C#N)=C(\C)N)o2)cc1 | inactive |
| COc1ccc(-c2nc(NC(=O)c3c(C)noc3C)sc2C)cc1 | inactive |
| Cc1sc2nc(CSC(C)C(=O)NC3(C#N)CCCCC3)[nH]c(=O)c2c1C (stereo not given) | inconclusive: 13 µM [activator, partial curve, poor fit] |
| Cc1ccc(-c2cc(C(=O)N/N=C/c3ccc([N+](=O)[O-])o3)c3ccccc3n2)o1 | inconclusive: 23.1 µM [activator, single point] |
| COc1ccc(Cl)cc1NC(=O)CNC(c1ccccc1)c1ccccc1 | inconclusive: 29.1 µM [activator, single point] |
| CCC(C)(C)C(=O)O[C@H]1C[C@@H](C)C=C2C=C[C@H](C)[C@H](CC[C@@H]3C[C@@H](O)CC(=O)O3)[C@H]21 | inconclusive: 5.8 µM [activator, single point] |
| COc1ccc(C2c3ccc4ccccc4c3Oc3ncn(CCN4CCOCC4)c(=N)c32)cc1 (stereo not given) | active: 23.1 µM |
| COc1ccc(C(=O)N/N=C(\C)c2cccc(NC(=O)c3ccc(F)cc3)c2)c(OC)c1 | inconclusive: 23.1 µM [activator, single point] |
| Cc1ccc(S(=O)(=O)c2nc(-c3ccco3)oc2N2CCC(C)CC2)cc1 | inconclusive: 29.1 µM [activator, single point] |
| CCOc1ccc(-c2nc(S(=O)(=O)c3ccccc3)c(N3CCC(C(N)=O)CC3)o2)cc1 | inconclusive: 1.64 µM [activator, partial curve, poor fit] |
| O=S(=O)(c1ccc2ccccc2c1)N1CCN(Cc2ccccn2)CC1 | inconclusive: 16.4 µM [activator, single point] |
| CC(C)(C)c1ccc(C(=O)Nc2cccc3ncccc23)cc1 | inconclusive: 0.517 µM [activator, partial curve, poor fit] |
| COc1cc(CNCCc2ccccc2)cc(Br)c1OCC(=O)Nc1ccccc1C | inconclusive: 1.64 µM [activator, partial curve, poor fit] |
| CCO[C@@H]1OC(C(=O)O)=C[C@H](C)[C@H]1CCCO | inconclusive: 2.31 µM [activator, partial curve, poor fit] |
| O=[N+]([O-])/C=C/c1ccc2c(ccn2Cc2ccccc2)c1 | inconclusive: 8.2 µM [activator, partial curve] |
| CCCN1CCCc2cc(CN)ccc21 | inconclusive: 18.4 µM [activator, single point] |
| CCN(CC)S(=O)(=O)c1ccc(=O)n(CC(=O)N2CCCc3cc(C)ccc32)c1 | inconclusive: 29.1 µM [activator, single point] |

Some values from the list.
Cc1ccc(C(=O)C2(C)C3c4cc(Br)ccc4OC(=O)C32C(=O)c2ccco2)cc1 (stereo not given) – Potency: inactive
COc1cc(CNCCc2ccccc2)cc(Br)c1OCC(=O)Nc1ccccc1C – Potency: inconclusive: 1.64 µM [activator, partial curve, poor fit]
